According to PMC3394726:
Results are given in words; binding and its absence hold for the method and conditions named. Some binding calls cover weakened binding; strength is not graded here.

By UniProt entry, the sequences of proteins in these tests, tags left out. Where a name states a change or a piece, a line headed by the entry shows the natural chain unless it says otherwise. Residues count along the entry.
UniProt P11226, residues 21-248: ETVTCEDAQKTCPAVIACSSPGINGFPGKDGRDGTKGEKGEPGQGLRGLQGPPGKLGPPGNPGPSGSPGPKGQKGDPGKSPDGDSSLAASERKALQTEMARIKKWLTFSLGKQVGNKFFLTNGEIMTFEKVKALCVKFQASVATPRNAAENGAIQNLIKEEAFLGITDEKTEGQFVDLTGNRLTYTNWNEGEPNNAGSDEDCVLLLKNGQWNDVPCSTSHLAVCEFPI
UniProt P13671, residues 22-934: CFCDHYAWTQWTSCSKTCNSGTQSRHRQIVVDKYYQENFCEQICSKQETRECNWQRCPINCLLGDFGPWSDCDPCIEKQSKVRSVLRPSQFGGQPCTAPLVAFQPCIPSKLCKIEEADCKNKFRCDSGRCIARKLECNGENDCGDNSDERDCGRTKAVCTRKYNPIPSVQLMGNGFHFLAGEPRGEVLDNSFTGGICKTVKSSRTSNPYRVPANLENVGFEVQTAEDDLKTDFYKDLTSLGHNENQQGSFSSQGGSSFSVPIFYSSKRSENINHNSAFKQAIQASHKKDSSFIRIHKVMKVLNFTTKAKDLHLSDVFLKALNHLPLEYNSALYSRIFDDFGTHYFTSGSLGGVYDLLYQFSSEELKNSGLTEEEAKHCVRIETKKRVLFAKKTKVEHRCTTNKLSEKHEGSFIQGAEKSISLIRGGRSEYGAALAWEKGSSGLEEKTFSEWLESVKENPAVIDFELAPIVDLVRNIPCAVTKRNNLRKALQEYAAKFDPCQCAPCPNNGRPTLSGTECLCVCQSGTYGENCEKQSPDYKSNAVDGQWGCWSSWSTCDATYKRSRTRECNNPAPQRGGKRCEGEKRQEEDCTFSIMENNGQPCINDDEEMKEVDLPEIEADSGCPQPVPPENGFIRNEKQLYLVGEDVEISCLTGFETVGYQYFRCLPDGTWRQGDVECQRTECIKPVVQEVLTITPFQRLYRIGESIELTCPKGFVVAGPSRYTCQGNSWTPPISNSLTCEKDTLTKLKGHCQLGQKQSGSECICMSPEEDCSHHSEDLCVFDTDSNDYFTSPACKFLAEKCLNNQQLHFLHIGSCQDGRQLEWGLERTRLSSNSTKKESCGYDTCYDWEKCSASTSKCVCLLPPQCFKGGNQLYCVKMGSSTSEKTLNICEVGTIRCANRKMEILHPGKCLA
UniProt P07357: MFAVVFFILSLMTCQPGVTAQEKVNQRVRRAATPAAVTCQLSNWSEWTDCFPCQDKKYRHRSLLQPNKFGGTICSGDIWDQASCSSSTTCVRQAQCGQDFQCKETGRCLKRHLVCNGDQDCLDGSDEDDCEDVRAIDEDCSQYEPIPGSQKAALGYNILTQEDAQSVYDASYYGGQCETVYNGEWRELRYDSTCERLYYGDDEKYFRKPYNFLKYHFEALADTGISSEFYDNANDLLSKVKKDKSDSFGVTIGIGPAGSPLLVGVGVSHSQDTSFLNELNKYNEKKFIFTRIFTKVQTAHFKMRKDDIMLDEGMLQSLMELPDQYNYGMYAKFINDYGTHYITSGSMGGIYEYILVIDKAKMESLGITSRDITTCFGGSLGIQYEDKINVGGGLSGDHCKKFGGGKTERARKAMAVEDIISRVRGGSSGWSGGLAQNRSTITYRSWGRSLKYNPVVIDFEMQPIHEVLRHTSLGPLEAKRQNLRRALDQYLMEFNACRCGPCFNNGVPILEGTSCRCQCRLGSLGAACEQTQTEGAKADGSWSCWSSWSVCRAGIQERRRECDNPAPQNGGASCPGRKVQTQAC
UniProt P07358: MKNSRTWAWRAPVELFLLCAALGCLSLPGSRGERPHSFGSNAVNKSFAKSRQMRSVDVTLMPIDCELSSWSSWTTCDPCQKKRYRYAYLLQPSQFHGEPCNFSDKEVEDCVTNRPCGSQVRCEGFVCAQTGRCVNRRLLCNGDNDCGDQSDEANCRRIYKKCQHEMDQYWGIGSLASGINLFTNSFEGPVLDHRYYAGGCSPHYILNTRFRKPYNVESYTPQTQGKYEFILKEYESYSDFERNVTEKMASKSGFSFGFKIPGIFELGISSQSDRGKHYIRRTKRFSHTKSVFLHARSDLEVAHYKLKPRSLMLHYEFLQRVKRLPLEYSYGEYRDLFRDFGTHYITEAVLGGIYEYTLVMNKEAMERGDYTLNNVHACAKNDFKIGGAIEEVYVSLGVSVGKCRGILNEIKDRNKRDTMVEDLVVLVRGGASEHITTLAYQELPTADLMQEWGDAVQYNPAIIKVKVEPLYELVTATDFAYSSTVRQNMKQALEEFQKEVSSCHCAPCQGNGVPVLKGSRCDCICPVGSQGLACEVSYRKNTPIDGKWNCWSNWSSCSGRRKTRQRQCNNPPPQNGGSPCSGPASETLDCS
UniProt P07360: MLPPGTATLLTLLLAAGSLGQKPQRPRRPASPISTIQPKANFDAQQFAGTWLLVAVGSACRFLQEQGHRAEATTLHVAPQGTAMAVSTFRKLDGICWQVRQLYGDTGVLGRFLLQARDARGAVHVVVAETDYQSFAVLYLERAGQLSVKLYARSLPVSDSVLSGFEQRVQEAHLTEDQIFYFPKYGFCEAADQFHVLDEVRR
UniProt P27918, residues 28-469: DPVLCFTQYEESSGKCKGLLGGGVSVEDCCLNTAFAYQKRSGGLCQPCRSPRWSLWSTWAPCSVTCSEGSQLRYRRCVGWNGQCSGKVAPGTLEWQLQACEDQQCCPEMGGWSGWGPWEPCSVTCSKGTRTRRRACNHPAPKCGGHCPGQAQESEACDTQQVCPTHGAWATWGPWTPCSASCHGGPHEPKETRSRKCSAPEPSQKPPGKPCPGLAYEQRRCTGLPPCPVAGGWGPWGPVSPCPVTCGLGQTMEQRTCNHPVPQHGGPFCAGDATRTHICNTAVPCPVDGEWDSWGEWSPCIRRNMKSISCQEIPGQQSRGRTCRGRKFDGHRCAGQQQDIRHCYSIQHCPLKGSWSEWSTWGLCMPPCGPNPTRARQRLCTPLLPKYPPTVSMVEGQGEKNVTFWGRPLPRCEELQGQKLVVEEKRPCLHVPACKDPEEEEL

target: T1, scabies mite serpin SMSB4, wild type (Sarcoptes scabiei); assay: ELISA; SMSB3 or SMSB4 coated at 10 µg/ml; serial dilutions of normal human serum (0-100%) for 10, 20, 40 or 60 min at 37°C; bound complement factors detected with specific antibodies; only the target purified
T1 sequence: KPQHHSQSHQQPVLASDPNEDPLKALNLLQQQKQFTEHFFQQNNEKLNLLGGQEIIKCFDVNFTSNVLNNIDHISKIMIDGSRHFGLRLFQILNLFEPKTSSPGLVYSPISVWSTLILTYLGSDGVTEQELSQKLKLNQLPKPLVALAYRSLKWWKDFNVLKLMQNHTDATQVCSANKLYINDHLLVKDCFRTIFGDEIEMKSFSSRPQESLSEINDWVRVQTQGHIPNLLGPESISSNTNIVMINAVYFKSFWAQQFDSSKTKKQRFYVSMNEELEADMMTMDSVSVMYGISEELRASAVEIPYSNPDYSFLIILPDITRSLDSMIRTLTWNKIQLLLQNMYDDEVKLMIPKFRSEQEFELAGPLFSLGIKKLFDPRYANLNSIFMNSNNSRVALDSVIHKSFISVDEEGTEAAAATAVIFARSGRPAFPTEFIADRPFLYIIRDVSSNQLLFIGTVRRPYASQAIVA

human MBL (from UniProt P11226 21-248) was tested. Which binding did it give?
The binding was “binds”.

With “human complement C6 (from UniProt P13671 22-934)” as the substance, how does the binding read?
Its binding is “binds”.

Which binding does the source give for “human complement C8 (from UniProt P07357;P07358;P07360) (complex)” here?
The binding was “binds”.

How did the binding turn out when “human properdin (from UniProt P27918 28-469)” was run?
The binding was “binds”.
